According to PubChem BioAssay AID504465 (National Center for Advancing Translational Sciences (NCATS), 2011):
The whole screen tested about 2,100 compounds, of which about 210 (10%) were called active. All entries are inconclusive by the source's own rule. Clear calls are listed elsewhere. Calls come from the whole dose curve; as a rule, active = well fitted inhibition curve with a large enough effect; inconclusive = small, poorly fitted or top-dose-only effect, or effect the other way; inactive = no such curve, though single readings can be large or run the other way. Some tests of the compounds listed are not included; inactive here does not mean inactive elsewhere.

test: IN Cell qHTS Assay for Inhibitors of the mTORC1 Signaling Pathway in MEF (Tsc2-/-, p53-/-) Cells: Sytravon; conditions: phospho-rpS6 immunofluorescence, 24 h; note: nearly all actives have a fitted effect of over 60% in size
Description: NIH Molecular Libraries Probe Production Centers Network [MLPCN] NIH Chemical Genomics Center [NCGC] MLPCN Grant: NS059428-01 Assay Submitter (PI): Blenis, John; Hoffman, Greg; Harvard University NCGC Assay Overview: Thee mammalian target of rapamycin (mTOR) is an intracellular serine/threonine kinase Aberrant regulation of mTOR signaling plays a causative role in a number of human diseases, including cancer, benign tumors such as lymphangioleiomyomatosis (LAM) and Tuberous Sclerosis Complex (TSC), and metabolic diseases such as diabetes and obesity. This project aims to identify inhibitors of ribosomal protein S6 (rpS6) phosphorylation. The phosphorylation of rpS6 is a key event downstream of mTOR activation. […]
NCGC IN Cell Assay Protocol: For quantitative high throughput analysis of mTORC1 signaling, we developed a cell-based assay for immuno-fluorescence based detection of rpS6 phosphorylation on the Acumen Explorer that will be used a platform for the primary small molecule screen. […] The fluorescence emission filters used were HQ460/40M and HQ535/50M for the Hoechst and Alexa-488 cytoplasmic stains, respectively. The normalized phospho-S6 staining is calculated as the ratio of […] for the single concentration rapamycin control (7.5 nM) and DMSO columns. […]
Potency is the fitted concentration of half-maximal effect.

Row | Compound | Potency
1 | CC(C)COc1ccc(C(=O)NCC2(N(C)C)CCCCC2)cc1 | inconclusive: 1650 nM
